{"source": "paper PMC6600216", "binders": {"B1": {"name": "SHIP2, endogenous mouse (enzyme, UniProt Q6P549 1-1257)", "chain": "MASVCGTPSPGGALGSPAPAWYHRDLSRAAAEELLARAGRDGSFLVRDSESVAGAFALCVLYQKHVHTYRILPDGEDFLAVQTSQGVPVRRFQTLGELIGLYAQPNQGLVCALLLPVEGEREPDPPDDRDASDVEDEKPPLPPRSGSTSISAPVGPSSPLPTPETPTTPAAESTPNGLSTVSHEYLKGSYGLDLEAVRGGASNLPHLTRTLVTSCRRLHSEVDKVLSGLEILSKVFDQQSSPMVTRLLQQQSLPQTGEQELESLVLKLSVLKDFLSGIQKKALKALQDMSSTAPPAPLQPSIRKAKTIPVQAFEVKLDVTLGDLTKIGKSQKFTLSVDVEGGRLVLLRRQRDSQEDWTTFTHDRIRQLIKSQRVQNKLGVVFEKEKDRTQRKDFIFVSARKREAFCQLLQLMKNRHSKQDEPDMISVFIGTWNMGSVPPPKNVTSWFTSKGLGKALDEVTVTIPHDIYVFGTQENSVGDREWLDLLRGGLKELTDLDYRPIAMQSLWNIKVAVLVKPEHENRISHVSTSSVKTGIANTLGNKGAVGVSFMFNGTSFGFVNCHLTSGNEKTTRRNQNYLDILRLLSLGDRQLSAFDISLRFTHLFWFGDLNYRLDMDIQEILNYISRREFEPLLRVDQLNLEREKHKVFLRFSEEEISFPPTYRYERGSRDTYAWHKQKPTGVRTNVPSWCDRILWKSYPETHIICNSYGCTDDIVTSDHSPVFGTFEVGVTSQFISKKGLSKTSDQAYIEFESIEAIVKTASRTKFFIEFYSTCLEEYKKSFENDAQSSDNINFLKVQWSSRQLPTLKPILADIEYLQDQHLLLTVKSMDGYESYGECVVALKSMIGSTAQQFLTFLSHRGEETGNIRGSMKVRVPTERLGTRERLYEWISIDKDDTGAKSKVPSVSRGSQEHRSGSRKPASTETSCPLSKLFEEPEKPPPTGRPPAPPRAVPREEPLNPRLKSEGTSEQEGVAAPPPKNSFNNPAYYVLEGVPHQLLPLEPPSLARAPLPPATKNKVAITVPAPQLGRHRTPRVGEGSSSDEDSGGTLPPPDFPPPPLPDSAIFLPPNLDPLSMPVVRGRSGGEARGPPPPKAHPRPPLPPGTSPASTFLGEVASGDDRSCSVLQMAKTLSEVDYAPGPGRSALLPNPLELQPPRGPSDYGRPLSFPPPRIRESIQEDLAEEAPCPQGGRASGLGEAGMGAWLRAIGLERYEEGLVHNGWDDLEFLSDITEEDLEEAGVQDPAHKRLLLDTLQLSK"}, "B2": {"name": "IRTKS, endogenous mouse (protein, UniProt Q9DBJ3 1-514)", "chain": "MSRGPEEVNRLTENTYRNVMEQFNPGLRNLINLGKNYEKAVNAMILAGKAYYDGVAKIGEIATGSPVSTELGHVLIEISSTHKKLNETLDENFKKFHKDIIHELEKKTELDVKYMNATLKRYQAEHRNKLDSLEKSQAELKKIRRKSQGGRNALKYEHKEIEYVETVTSRQSEIQKFIADGCKEALLEEKRRFCFLVDKHCSFASHIHYYHMQSAELLNSKLPRWQETCCDATKVPEKIMNMIEEIKTPISTPVSGTPQPSPMIERSKMIGKDYDTLSKYSPKMPPAPSVKAYTSPLIDMFNNPATAAQSSEKTNNSTANTGEDPSLQRSVSVATGLNMMKKQKVKTIFPHTAGNNKTLLSFAQGDVLTLLIPEEKDGWLYGEHDTTKARGWFPSSYTKLLEENEAMSVPTPSPAPVRSISTVDLTEKSSVVIPPPDYLECLSMGATSDKKAGAPKVPSASTFRAPVSRPDATSTSPSDANGTAKPPFLSGENPFATVKLRPTVTNDRSAPIIR"}, "B3": {"name": "SHIP2, endogenous human (enzyme, UniProt O15357 1-1258)", "chain": "MASACGAPGPGGALGSQAPSWYHRDLSRAAAEELLARAGRDGSFLVRDSESVAGAFALCVLYQKHVHTYRILPDGEDFLAVQTSQGVPVRRFQTLGELIGLYAQPNQGLVCALLLPVEGEREPDPPDDRDASDGEDEKPPLPPRSGSTSISAPTGPSSPLPAPETPTAPAAESAPNGLSTVSHDYLKGSYGLDLEAVRGGASHLPHLTRTLATSCRRLHSEVDKVLSGLEILSKVFDQQSSPMVTRLLQQQNLPQTGEQELESLVLKLSVLKDFLSGIQKKALKALQDMSSTAPPAPQPSTRKAKTIPVQAFEVKLDVTLGDLTKIGKSQKFTLSVDVEGGRLVLLRRQRDSQEDWTTFTHDRIRQLIKSQRVQNKLGVVFEKEKDRTQRKDFIFVSARKREAFCQLLQLMKNKHSKQDEPDMISVFIGTWNMGSVPPPKNVTSWFTSKGLGKTLDEVTVTIPHDIYVFGTQENSVGDREWLDLLRGGLKELTDLDYRPIAMQSLWNIKVAVLVKPEHENRISHVSTSSVKTGIANTLGNKGAVGVSFMFNGTSFGFVNCHLTSGNEKTARRNQNYLDILRLLSLGDRQLNAFDISLRFTHLFWFGDLNYRLDMDIQEILNYISRKEFEPLLRVDQLNLEREKHKVFLRFSEEEISFPPTYRYERGSRDTYAWHKQKPTGVRTNVPSWCDRILWKSYPETHIICNSYGCTDDIVTSDHSPVFGTFEVGVTSQFISKKGLSKTSDQAYIEFESIEAIVKTASRTKFFIEFYSTCLEEYKKSFENDAQSSDNINFLKVQWSSRQLPTLKPILADIEYLQDQHLLLTVKSMDGYESYGECVVALKSMIGSTAQQFLTFLSHRGEETGNIRGSMKVRVPTERLGTRERLYEWISIDKDEAGAKSKAPSVSRGSQEPRSGSRKPAFTEASCPLSRLFEEPEKPPPTGRPPAPPRAAPREEPLTPRLKPEGAPEPEGVAAPPPKNSFNNPAYYVLEGVPHQLLPPEPPSPARAPVPSATKNKVAITVPAPQLGHHRHPRVGEGSSSDEESGGTLPPPDFPPPPLPDSAIFLPPSLDPLPGPVVRGRGGAEARGPPPPKAHPRPPLPPGPSPASTFLGEVASGDDRSCSVLQMAKTLSEVDYAPAGPARSALLPGPLELQPPRGLPSDYGRPLSFPPPRIRESIQEDLAEEAPCLQGGRASGLGEAGMSAWLRAIGLERYEEGLVHNGWDDLEFLSDITEEDLEEAGVQDPAHKRLLLDTLQLSK"}}, "key": {"[1]": {"biological_target": "T1, IRTKS, endogenous mouse (mouse (endogenous in MEFs, liver and kidney)) (UniProt Q9DBJ3)", "T1 sequence": "B2 chain", "test": "co-IP; lysates (1 mg total protein) of MEFs, liver and kidney of wild-type and IRTKS-knockout mice; anti-IRTKS or anti-SHIP2 antibody (1 ug) at 4 °C overnight, protein-G beads 4 h; IgG as negative control; immunoblot"}, "[2]": {"biological_target": "T2, SHIP2, endogenous mouse (mouse (endogenous in MEFs, liver and kidney)) (UniProt Q6P549)", "T2 sequence": "B1 chain", "test": "co-IP; lysates (1 mg total protein) of MEFs, liver and kidney of wild-type and IRTKS-knockout mice; anti-IRTKS or anti-SHIP2 antibody (1 ug) at 4 °C overnight, protein-G beads 4 h; IgG as negative control; immunoblot"}, "[3]": {"biological_target": "T3, IRTKS, endogenous human (human (endogenous in HepG2, SK-Hep-1, Huh7, HEK293T)) (UniProt Q9UHR4)", "T3 sequence": "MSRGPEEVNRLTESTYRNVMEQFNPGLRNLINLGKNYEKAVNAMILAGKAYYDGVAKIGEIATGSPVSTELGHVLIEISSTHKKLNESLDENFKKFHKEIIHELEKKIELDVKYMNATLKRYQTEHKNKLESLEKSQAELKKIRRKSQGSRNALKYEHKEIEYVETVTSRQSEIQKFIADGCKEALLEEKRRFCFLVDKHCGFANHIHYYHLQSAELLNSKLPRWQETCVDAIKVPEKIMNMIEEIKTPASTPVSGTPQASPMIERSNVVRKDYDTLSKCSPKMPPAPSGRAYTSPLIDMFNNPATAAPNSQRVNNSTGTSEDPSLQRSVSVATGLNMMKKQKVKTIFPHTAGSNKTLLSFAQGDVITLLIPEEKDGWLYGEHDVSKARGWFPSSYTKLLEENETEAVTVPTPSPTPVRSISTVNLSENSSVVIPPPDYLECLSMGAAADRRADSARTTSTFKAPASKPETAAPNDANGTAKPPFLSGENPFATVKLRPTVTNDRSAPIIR", "test": "co-IP; lysates (1 mg total protein) of HepG2, SK-Hep-1 and Huh7 cells, also serum-starved and stimulated with insulin for the indicated times; anti-IRTKS or anti-SHIP2 antibody (1 ug) at 4 °C overnight, protein-G beads 4 h; IgG as negative control; immunoblot"}, "[4]": {"biological_target": "T4, GST-tagged full-length IRTKS (human) (UniProt Q9UHR4)", "T4 sequence": "T3 sequence", "test": "pull-down; GST-tagged IRTKS fusion proteins bound to glutathione-sepharose beads, incubated with HEK293T cell lysate overnight at 4 °C; washed four times with lysis buffer; Western blot for endogenous SHIP2; only the target purified"}}, "note": "These are yes or no findings as the source states them, for the method shown. Binding seen in cells or lysates may run through a third protein. Some binding calls cover weakened binding; strength is not graded here. For some of these results: Sequences can lack the tags named with a protein."}
{"binder": "B1", "values": [{"measurement": "binding", "setting": "[1]", "result": "binds"}]}
{"binder": "B2", "values": [{"measurement": "binding", "setting": "[2]", "result": "binds"}]}
{"binder": "B3", "values": [{"measurement": "binding", "setting": "[3]", "result": "binds"}, {"measurement": "binding", "setting": "[4]", "result": "binds"}]}
